Reference: the supplement of paper PMC3334620
The full ranking holds about 33,000 sequences; the median of “E-score (-0.5 to 0.5)” is about -0.016, and the highest 2% start at about 0.3. The list shows a part of the results.

The sequences below were run against T1, Yer184c (UniProt P39961) (assay: PBM E-score (8-mer binding enrichment) (E-score (-0.5 to 0.5)); higher = stronger / more preferred TF binding). Conditions: protein concentration: 100 nM; construct: GST-full length.
T1 sequence: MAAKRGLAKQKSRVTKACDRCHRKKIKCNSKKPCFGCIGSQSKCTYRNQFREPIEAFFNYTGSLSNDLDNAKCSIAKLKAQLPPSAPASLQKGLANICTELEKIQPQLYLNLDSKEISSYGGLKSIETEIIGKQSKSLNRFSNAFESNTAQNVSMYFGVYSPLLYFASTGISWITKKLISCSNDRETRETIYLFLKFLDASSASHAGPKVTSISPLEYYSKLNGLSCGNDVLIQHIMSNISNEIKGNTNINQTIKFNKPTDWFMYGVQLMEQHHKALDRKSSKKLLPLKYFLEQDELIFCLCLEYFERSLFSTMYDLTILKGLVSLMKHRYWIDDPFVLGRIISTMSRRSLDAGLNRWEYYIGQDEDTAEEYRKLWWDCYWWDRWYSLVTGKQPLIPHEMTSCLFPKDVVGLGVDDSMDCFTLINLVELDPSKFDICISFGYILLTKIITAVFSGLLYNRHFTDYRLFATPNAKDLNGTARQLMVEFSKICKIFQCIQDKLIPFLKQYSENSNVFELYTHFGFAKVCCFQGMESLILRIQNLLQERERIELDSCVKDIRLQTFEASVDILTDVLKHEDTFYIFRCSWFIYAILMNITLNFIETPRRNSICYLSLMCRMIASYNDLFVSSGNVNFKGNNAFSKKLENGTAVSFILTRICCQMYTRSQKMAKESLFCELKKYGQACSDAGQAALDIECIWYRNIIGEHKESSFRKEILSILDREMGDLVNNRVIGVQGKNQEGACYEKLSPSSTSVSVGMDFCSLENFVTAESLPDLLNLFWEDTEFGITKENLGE
Method in brief: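 The E-score, a modified Wilcoxon-Mann-Whitney statistic, was computed by the Universal PBM Analysis Suite for every ungapped eight-base word pooled with its reverse complement. Scans behind it were normalised with masliner after bound GST-tagged yeast transcription factors were detected with fluorescent anti-GST. The proteins, at about 100-200 nM, had been applied to universal all-10-mer Agilent arrays made double-stranded by primer extension.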

Sequence | PBM E-score
CTTTATCC | 0.0754
ACCGAAGA | 0.344
CAAGCAAC | -0.00493
CTCGGCAA | 0.319
AATTCTAG | 0.0208
AGCTACAG | -0.229
AAATCCAT | 0.0635
ATGTGAAT | 0.0398
AGTTTACA | 0.0457
AAAGAAGC | 0.0902
CCTCCTTC | -0.0753
CCAAGCGC | 0.0605
ACAGCGCA | -0.151
ATACGGAT | 0.196
ATCCGGCG | 0.321
GACGTGGA | -0.317
AAGTAGCC | -0.0314
GCGAATTA | 0.122
AGAGAGAC | -0.155
AACATTTC | 0.0819
GAGCTTGC | -0.172
ACAATTGG | -0.167

Looked up above.
Under PBM E-score, AAATCCAT has 0.0635
Under PBM E-score, ACAGCGCA has -0.151
Under PBM E-score, AAAGAAGC has 0.0902
Under PBM E-score, AACATTTC has 0.0819
Under PBM E-score, ATACGGAT has 0.196

(continued)

Sequence | PBM E-score
CCGACTCC | -0.00279
GGTAATCA | 0.132
CTTGCGTC | -0.153
TAAAAGGA | 0.14
CTACCCCC | -0.29
GAGCCGCA | 0.0573
CCGACCGA | 0.219
GGACTATA | 0.0546
AGGTACCG | 0.146
CGAATTGC | 0.0361
TCGCGGAA | 0.137
GAATCTGC | 0.12
GGACTGCC | -0.102
ATTAGCAC | 0.121
ATTCTTAA | 0.00628
CCGGGAAC | 0.303
ATCGGGTC | 0.122
CAGCACTC | -0.129
GATTTTGC | -0.0335
GCGACACC | -0.0638
CATCGCCG | 0.154
ACCCCTTC | -0.285

Sequence | PBM E-score
CCACCGGC | 0.146
CGTCTTTA | 0.217
CCCTTGCC | -0.229
TCGTCAGA | -0.209
AGGATAGG | -0.108
GAGTTATA | 0.0735
GGCGAGGA | -0.0763
CCCTTTTA | -0.145
CGGACTAG | 0.0558
GCCATACC | -0.225
CGTTAGAG | -0.0061
ATGTGGTA | 0.0324
GCGAGAGA | -0.117
ACTGATCT | 0.0596
GAGGACAC | -0.0629
ACCTCCAC | -0.105
GCGGCAAC | 0.117
ACATGCGA | -0.123
GCTATCCA | 0.0191
GTGTCCCA | -0.0413
AGGTCGAG | -0.159
CAGCGAAC | 0.00469

Sequence | PBM E-score
GGAGGCAA | -0.176
GCGCAATA | -0.0434
ATCAGGGG | -0.367
AGAAGGGC | -0.188
GGCACATA | 0.0176
CGTTGCCA | 0.0238
GGGCTGAA | 0.0258
ATCGATTC | -0.0187
AGAGATAA | -0.0218
CACACACG | 0.0314
ATCGGCTG | 0.223
AGTTTTTC | 0.171
CGTGGACC | -0.177
AACGCAGA | 0.0553
GTAAGAAC | 0.209
CTCGTAAC | -0.0543
ACAAACCT | -0.103
AATTTCAA | 0.0699
CCATCAGG | -0.323
TATCACGA | -0.0636
